Record: PubChem BioAssay AID1259254 (NCATS, 2017)

Screen: 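Finding genes that stop cells copying their DNA twice in one cycle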 (primary screen)
Cells: human HCT116 colorectal cancer cells
Knock-down reagent: single siRNA against human genes
Timing: 3 days
Measurement: 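Imaged Hoechst DNA stain sorts each cell into a cycle phase by DNA amount; per plate, G2 fraction set to 0% for non-targeting and 100% for GMNN siRNA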
Direction: G2 robust z-score and G2 cells, % of GMNN control: higher = more G2 cells, more excess DNA replication
Hit rule: 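Active siRNAs have a G2 robust z of 5 or more median absolute deviations over the median, which in these data means about 38% or higher of GMNN control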
Here is a random part of about 59,000 reagents. Over the whole deposit, about 1,550 (2.6%) got an active call. 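G2 share is only a proxy for re-replication; each gene was hit by three separate siRNAs, and active genes were retested.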 A number with no mark means an inactive call. Reagents against one gene are numbered here. Not all columns of the deposit are shown. Not stated in the record: the amount of reagent.

no.	gene	reagent	G2 robust z-score	G2 cells, % of GMNN control
1	DOCK9 (GeneID 23348)	1	-0.919	-3.5
2	DOCK9 (GeneID 23348)	2	-1.21	-5.56
3	DOCK9 (GeneID 23348)	3	0.756	8.29
4	TECPR1 (GeneID 25851)	1	-0.877	-3.21
5	TECPR1 (GeneID 25851)	2	-0.0721	2.46
6	TECPR1 (GeneID 25851)	3	-0.716	-2.07
7	NOX1 (GeneID 27035)	1	-0.855	-3.04
8	NOX1 (GeneID 27035)	2	-0.599	-1.25
9	NOX1 (GeneID 27035)	3	2.65	21.6
10	ROBO1 (GeneID 6091)	1	2.39	19.8
11	ROBO1 (GeneID 6091)	2	-0.293	0.909
12	ROBO1 (GeneID 6091)	3	-0.97	-3.85
13	CAMK2B (GeneID 816)	1	-0.317	0.738
14	CAMK2B (GeneID 816)	2	-1.26	-5.87
15	CAMK2B (GeneID 816)	3	-1.09	-4.7
16	PCDHA11 (GeneID 56138)	1	-0.426	-0.0307
17	PCDHA11 (GeneID 56138)	2	-0.26	1.14
18	PCDHA11 (GeneID 56138)	3	-0.959	-3.78
19	AGTR2 (GeneID 186)	1	0.485	6.38
20	AGTR2 (GeneID 186)	2	-0.155	1.88
21	AGTR2 (GeneID 186)	3	-0.0343	2.73
22	CR1L (GeneID 1379)	1	-0.348	0.517
23	CR1L (GeneID 1379)	2	-1.66	-8.73
24	CR1L (GeneID 1379)	3	-1	-4.08
25	UBXN7 (GeneID 26043)	1	0.753	8.26
26	UBXN7 (GeneID 26043)	2	-0.485	-0.448
27	UBXN7 (GeneID 26043)	3	-0.21	1.49
28	NPTXR (GeneID 23467)	1	0.334	5.32
29	NPTXR (GeneID 23467)	2	-1.18	-5.31
30	NPTXR (GeneID 23467)	3	3.72	29.2

3 successive entries already listed, quoted:
no.	gene	reagent	G2 robust z-score	G2 cells, % of GMNN control
20	AGTR2 (GeneID 186)	2	-0.155	1.88
21	AGTR2 (GeneID 186)	3	-0.0343	2.73
22	CR1L (GeneID 1379)	1	-0.348	0.517
